PubChem BioAssay AID1053209 – Peter MacCallum Cancer Centre, 2014
Shown is an unselected part of about 1,580 deposited reagents. Of all reagents, 207 (13%) were called active. 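Rows are single siRNAs; four siRNAs per gene were tested, a gene counting as confirmed only when at least two agree.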 Reagents against one gene are numbered here. Further read-outs or replicates are left out here. Reagent sequences are not shown.

Assay: 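Knock-downs that sensitise mouse osteosarcoma cells to doxorubicin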 (follow-up of hits)
Cells: mouse primary osteosarcoma cells
Reagents: single siRNA against mouse genes, 25 nM (text also states 40 nM)
Timing: about 120 h (48 h before drug, then 72 h with drug)
Treatment: doxorubicin 100 nM (about IC30-40), added 48 h after transfection, for 72 h
Detection: 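ATP-based luminescent viability, with or without doxorubicin, relative to non-targeting control NT1, mean of two replicates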
Scale: viability with doxorubicin, vs NT1: higher = more viable cells under doxorubicin; viability without drug, vs NT1: higher = more viable cells without drug
Call rule: 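Active when doxorubicin viability is at most 0.7 of NT1 and drug-free viability lies between 0.7 and 1.1, class LC dox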

Suds3 #1
- combined effect class: normal viability with and without drug
- viability with doxorubicin, vs NT1: 0.82
- viability without drug, vs NT1: 0.9
- outcome: inactive

Suds3 #2
- combined effect class: normal viability with and without drug
- viability with doxorubicin, vs NT1: 0.76
- viability without drug, vs NT1: 0.94
- outcome: inactive

Suds3 #3
- combined effect class: normal viability with and without drug
- viability with doxorubicin, vs NT1: 0.85
- viability without drug, vs NT1: 0.94
- outcome: inactive

Suds3 #4
- combined effect class: normal viability with and without drug
- viability with doxorubicin, vs NT1: 0.78
- viability without drug, vs NT1: 0.82
- outcome: inactive

Zfx #1
- combined effect class: normal viability with and without drug
- viability with doxorubicin, vs NT1: 0.9
- viability without drug, vs NT1: 0.94
- outcome: inactive

Zfx #2
- combined effect class: high viability only with doxorubicin
- viability with doxorubicin, vs NT1: 1.1
- viability without drug, vs NT1: 0.98
- outcome: inactive

Zfx #3
- combined effect class: normal viability with and without drug
- viability with doxorubicin, vs NT1: 0.98
- viability without drug, vs NT1: 1.04
- outcome: inactive

Zfx #4
- combined effect class: high viability only with doxorubicin
- viability with doxorubicin, vs NT1: 1.15
- viability without drug, vs NT1: 0.98
- outcome: inactive

U2af2 #1
- combined effect class: low viability with and without drug
- viability with doxorubicin, vs NT1: 0.33
- viability without drug, vs NT1: 0.6
- outcome: inactive

U2af2 #2
- combined effect class: low viability with and without drug
- viability with doxorubicin, vs NT1: 0.25
- viability without drug, vs NT1: 0.55
- outcome: inactive

U2af2 #3
- combined effect class: normal viability with and without drug
- viability with doxorubicin, vs NT1: 0.86
- viability without drug, vs NT1: 0.86
- outcome: inactive

U2af2 #4
- combined effect class: normal viability with and without drug
- viability with doxorubicin, vs NT1: 0.82
- viability without drug, vs NT1: 0.9
- outcome: inactive

Magea6 #1
- combined effect class: normal viability with and without drug
- viability with doxorubicin, vs NT1: 1
- viability without drug, vs NT1: 1.02
- outcome: inactive

Magea6 #2
- combined effect class: normal viability with and without drug
- viability with doxorubicin, vs NT1: 1.01
- viability without drug, vs NT1: 1.05
- outcome: inactive

Magea6 #3
- combined effect class: normal viability with and without drug
- viability with doxorubicin, vs NT1: 0.75
- viability without drug, vs NT1: 0.98
- outcome: inactive

Magea6 #4
- combined effect class: normal viability with and without drug
- viability with doxorubicin, vs NT1: 1.01
- viability without drug, vs NT1: 1
- outcome: inactive

Egln3 #1
- combined effect class: high viability only with doxorubicin
- viability with doxorubicin, vs NT1: 1.11
- viability without drug, vs NT1: 1
- outcome: inactive

Egln3 #2
- combined effect class: low viability only with doxorubicin; normal without drug
- viability with doxorubicin, vs NT1: 0.7
- viability without drug, vs NT1: 0.86
- outcome: active

Egln3 #3
- combined effect class: normal viability with and without drug
- viability with doxorubicin, vs NT1: 0.98
- viability without drug, vs NT1: 0.92
- outcome: inactive

Egln3 #4
- combined effect class: normal viability with and without drug
- viability with doxorubicin, vs NT1: 1
- viability without drug, vs NT1: 0.96
- outcome: inactive

Clptm1 #1
- combined effect class: normal viability with and without drug
- viability with doxorubicin, vs NT1: 0.96
- viability without drug, vs NT1: 0.94
- outcome: inactive

Clptm1 #2
- combined effect class: normal viability with and without drug
- viability with doxorubicin, vs NT1: 0.79
- viability without drug, vs NT1: 0.96
- outcome: inactive

Clptm1 #3
- combined effect class: normal viability with and without drug
- viability with doxorubicin, vs NT1: 0.84
- viability without drug, vs NT1: 0.86
- outcome: inactive

Clptm1 #4
- combined effect class: normal viability with and without drug
- viability with doxorubicin, vs NT1: 1.03
- viability without drug, vs NT1: 0.98
- outcome: inactive

2 entries already listed, sorted by “viability with doxorubicin, vs NT1”, highest first:
U2af2 #3
- combined effect class: normal viability with and without drug
- viability with doxorubicin, vs NT1: 0.86
- viability without drug, vs NT1: 0.86
- outcome: inactive

U2af2 #2
- combined effect class: low viability with and without drug
- viability with doxorubicin, vs NT1: 0.25
- viability without drug, vs NT1: 0.55
- outcome: inactive
